# According to PubChem BioAssay AID493014 (National Center for Advancing Translational Sciences (NCATS), 2011):
# This is one part of the list. These are further read-outs of the screen, such as a control signal, another cell line or another target. No call is given for them. The list favours compounds with an active or inconclusive main result. Words in brackets tell the shape of the fitted curve; partial curves, single points and poor fits give uncertain potencies.
# Assay: qHTS Assay to Find Inhibitors of Chronic Active B-Cell Receptor Signaling
# Conditions: ABC-DLBCL IkBa-CBG/CBR reporter, luminescence ratio (green luciferase fused to IkBa over red control in TMD8 lymphoma cells), 4 h
# Procedure, shortened: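 Doxycycline induced both beetle luciferases in TMD8 lymphoma cells; IKK-driven degradation limits the IkappaBalpha-fused green signal, while red luminescence normalises for cell number and nonspecific effects. Compounds tested up to 46 uM, 4 hrs.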
# [1] = measured here: CBR red luminescence, cell number
# [2] = measured here: IkBa-CBG green luminescence
Structure (SMILES),AC50 [1],AC50 [2]
Cc1cccc(OCC(O)CN2C(C)(C)CC(O)CC2(C)C)c1C (stereo not drawn),"3.26 µM [rising, single point]",–
Cc1ccc(CNc2nc3ccc(C)cc3n3cnnc23)cc1,"0.731 µM [rising, full curve]",–
Nc1nc(SCc2ccc(F)cc2)ns1,"3.16 µM [rising, full curve, poor fit]",–
CCOc1ccccc1N(CC(=O)Nc1cccnc1)S(C)(=O)=O,"20.6 µM [rising, partial curve, poor fit]",–
CCC(C)NC(=O)c1c(N)n(/N=C/c2cccnc2)c2nc3ccccc3nc12 (stereo not drawn),"3.98 µM [falling, partial curve]",–
O=C(Nc1ccc2c(c1)CCC2)c1ccccc1F,"16.4 µM [falling, single point]",–
COc1ccc(Br)cc1CN(C)CC(=O)Nc1cccc(S(N)(=O)=O)c1,"22.4 µM [rising, single point]",–
COc1cccc(CNC(=O)CCCc2c[nH]c3ccccc23)c1,"11.2 µM [falling, partial curve]",–
COc1ccc(-c2nsc(SCC(=O)Nc3cc(C)on3)n2)cc1,"29.1 µM [falling, single point]",–
CCC(CO)Oc1cc(NCc2cccc(F)c2)c2ncn(C(C)C)c2c1 (stereo not drawn),"20.6 µM [falling, partial curve, poor fit]",–
N#Cc1cc2ccccc2nc1N,"6.31 µM [falling, partial curve, poor fit]",–
Cc1cc(C)c(O)c(-c2n[nH]c3c2C(c2cccc(O)c2)N(Cc2ccco2)C3=O)c1 (stereo not drawn),"25.1 µM [falling, single point]",–
O=C(Nc1cccnc1)c1ccc([N+](=O)[O-])o1,"35.5 µM [falling, single point]",–
Cc1ccc(S(=O)(=O)N(C)C)cc1NC(=O)CSc1ncc(C(F)(F)F)cc1Cl,"23.1 µM [falling, partial curve]",–
COc1c(Br)cc(C(N)=O)cc1OCc1ccccc1,"9.2 µM [rising, partial curve, poor fit]",–
Cc1cc(=O)n(-c2ccc3ccccc3n2)[nH]1,"25.9 µM [falling, single point]",–
O=C(CCCCCn1c(=O)[nH]c2ccsc2c1=O)NCc1ccc(F)cc1,"29.1 µM [falling, single point]",–
COc1ccc(C2/C=C\CN(C(=O)Nc3ccc(C(F)(F)F)cc3)CC(=O)N2Cc2ccc(F)cc2)cc1 (stereo not drawn),"7.08 µM [rising, partial curve]",–
C/C(N)=C(/C#N)C(=O)COC(=O)c1cc(-c2cccc(Br)c2)nc2ccccc12,"32.6 µM [falling, partial curve, poor fit]",–
O=C(COC(=O)CCc1nc2ccccc2c(=O)[nH]1)Nc1ccc(OC(F)(F)F)cc1,"20.6 µM [rising, single point]",–
Cc1cnc(C(=O)N2CCCC(C(=O)c3ccc(C(F)(F)F)cc3)C2)cn1 (stereo not drawn),"2.51 µM [falling, full curve]",–
Cc1nnc(-c2cnn(C)c2N)n1CCCN(C)C,"20 µM [rising, partial curve, poor fit]",–

Structure (SMILES),AC50 [1],AC50 [2]
O=C(Nc1ccccc1)C1=C[C@H](c2coc3ccccc3c2=O)C[C@H](OCc2ccc(CO)cc2)O1,"35.5 µM [falling, single point]","14.1 µM [rising, partial curve, poor fit]"
O=C(Cc1ccccc1)Nc1cccc(N2CCCC2)c1,"29.1 µM [rising, single point]",–
O=C(NCc1ccccc1)c1c[nH]c2cc3c(cc2c1=O)OCCO3,"18.4 µM [falling, single point]",–
CCn1cnc2cc(NCc3ccncc3)ccc21,"29.1 µM [rising, single point]",–
CCOc1ccc(NC(=O)NCCCN2CCCC2)cc1,"9.2 µM [falling, partial curve, poor fit]",–
O=C(NCCN1CCOCC1)c1ccccc1N1C(=O)[C@@H]2Cc3c([nH]c4ccccc34)C(c3ccccc3)N2C1=O (stereo partly drawn),"0.891 µM [falling, full curve, poor fit]",–
O=C(Nc1ccc2sccc2c1)c1cccc(N2C(=O)CCC2=O)c1,"11.2 µM [falling, partial curve, poor fit]",–
CCOc1ccc(S(=O)(=O)NCc2ccccn2)cc1NC(=O)c1ccccc1F,"2.24 µM [rising, full curve]","2.82 µM [falling, full curve, poor fit]"
Cn1c(NNC(=O)c2ccccc2F)cc(=O)n(C)c1=O,"35.5 µM [falling, single point]",–
CCN(CC)c1ccc(NC2=C(Cl)C(=O)c3ccccc3C2=O)cc1,"29.1 µM [falling, single point]",–
CCOC(=O)C1CCN(C(=O)/C=C/c2ccc(OC)cc2)CC1,"0.206 µM [falling, full curve]",–
COc1ccc(NC(=S)N(CCCN2CCCC2)Cc2cccs2)cc1,"0.164 µM [rising, full curve, poor fit]",–
Cc1ccc(NC(=O)CCCc2ccccc2)nc1,"35.5 µM [falling, single point]",–
Cc1ccc(N2C(N)=C(C#N)C(c3cccnc3)C3=C2CCCC3=O)cc1 (stereo not drawn),"3.55 µM [rising, full curve, poor fit]",–
Cc1nc2cc(NC(=O)N3CCCCC3)ccc2n1C,"32.6 µM [falling, single point]",–
O=C(Nc1ccc(NC(=O)c2ccco2)nc1)c1ccco1,"8.91 µM [falling, partial curve]",–
CCCCn1c(=N)n(CC(O)c2ccccc2)c2ccccc21 (stereo not drawn),"35.5 µM [falling, partial curve, poor fit]",–
O=C1NC(=S)S/C1=C/c1ccc(N2CCOCC2)o1,"18.4 µM [falling, single point]",–
N#CCc1ccc(C(=O)c2ccccc2F)s1,"16.4 µM [falling, single point]",–
O=C(CCCN1C(=O)c2cccc3cccc(c23)C1=O)NCc1ccco1,"10 µM [rising, partial curve, poor fit]",–
CCCCn1c(C(C)O)nc2ccccc21 (stereo not drawn),"2.24 µM [falling, partial curve, poor fit]",–
COc1cc(/C=N/NC(=S)NC2CC3CC2C2C=CCC32)ccc1O (stereo not drawn),"20 µM [falling, single point]",–

Structure (SMILES),AC50 [1],AC50 [2]
CCCCN(C)C(=O)C1CCN(Cc2ccc(OCc3ccccc3)cc2)CC1,"4.61 µM [falling, full curve, poor fit]",–
CSc1ccccc1C(=O)Nc1cc2c(cc1C(=O)O)OCCCO2,"20 µM [falling, partial curve]",–
CCn1c(=O)c(C2=NS(=O)(=O)c3ccccc3N2)c(O)c2ccccc21,"2.51 µM [falling, partial curve, poor fit]",–
COc1ccccc1-c1nc(COc2ccc(Cl)cc2Cl)no1,"11.2 µM [falling, partial curve]",–
Cc1cc(SCC(=O)OCC(=O)N(C)c2ccccc2)nc2ccccc12,"7.31 µM [rising, partial curve, poor fit]",–
O=C(NCCc1c[nH]c2ccccc12)c1ccccc1,"12.6 µM [falling, partial curve]",–
Cc1ccsc1C(=O)NC(C)c1ccc2c(c1)OCO2 (stereo not drawn),"20.6 µM [falling, single point]",–
COc1ccc(S(=O)(=O)Nc2c(O)c3ccccc3oc2=O)cc1,"31.6 µM [falling, single point]",–
COc1ccc(-c2nc(-c3ccncc3)no2)cc1OC,"5.01 µM [rising, single point]",–
CC(C)N1C(=O)C2C(C(=O)NC3CCCCC3)C3C=CC2(O3)C1C(=O)NC1CCCC1 (stereo not drawn),"0.00461 µM [rising, full curve, poor fit]",–
c1csc(-c2nn3c(C4COc5ccccc5O4)nnc3s2)c1 (stereo not drawn),"0.651 µM [falling, full curve, poor fit]",–
Cc1cccc(C(=O)Oc2ccc(/C=N/NC(=O)c3ccccc3O)cc2)c1,"6.51 µM [falling, partial curve, poor fit]",–
C/C(=N/Nc1nc(-c2ccc(Cl)cc2)cs1)c1cccs1,"0.206 µM [falling, full curve]",–
O=C(NCCN1CCN(c2ccccc2F)CC1)C1CC(=O)N(C2CCCC2)C1 (stereo not drawn),"3.16 µM [falling, single point]",–
COc1cc(/C=N/O)ccc1OCc1ccccc1Cl,"35.5 µM [falling, single point]",–
NC(=O)c1ccsc1NC(=O)COC(=O)CSc1ccc(Cl)cc1,"0.708 µM [falling, full curve, poor fit]",–
CCN(CC)S(=O)(=O)c1ccc2c(c1)c(=O)c(C(=O)N1CCN(c3ccccn3)CC1)cn2C,"0.1 µM [falling, full curve, poor fit]",–
C/C=C/c1ccc(OCCNCc2ccccc2)c(OC)c1,"35.5 µM [rising, partial curve, poor fit]",–
COc1cccc(Nc2nn3c(=O)c4ccccc4nc3s2)c1,"0.651 µM [falling, partial curve, poor fit]","0.0517 µM [rising, full curve, poor fit]"
Cc1ccc(C(=O)OC(C)C(=O)Nc2ccc(S(N)(=O)=O)cc2)cc1S(=O)(=O)N1CCOCC1 (stereo not drawn),"13 µM [rising, partial curve, poor fit]",–
O=C(O)c1ccccc1NN=C1CCCCC1,"14.6 µM [falling, single point]",–

# A run of entries of the results above, as a working copy:
Structure (SMILES),AC50 [1],AC50 [2]
Cc1cc(SCC(=O)OCC(=O)N(C)c2ccccc2)nc2ccccc12,"7.31 µM [rising, partial curve, poor fit]",–
O=C(NCCc1c[nH]c2ccccc12)c1ccccc1,"12.6 µM [falling, partial curve]",–
Cc1ccsc1C(=O)NC(C)c1ccc2c(c1)OCO2 (stereo not drawn),"20.6 µM [falling, single point]",–
COc1ccc(S(=O)(=O)Nc2c(O)c3ccccc3oc2=O)cc1,"31.6 µM [falling, single point]",–
COc1ccc(-c2nc(-c3ccncc3)no2)cc1OC,"5.01 µM [rising, single point]",–
